Source: the supplement of paper PMC8728848
This is one part of the list.

Key:
Assay in all cases: glycan array binding signal (z-score within array); higher = stronger binding
Settings in all cases: glycan notation: IUPAC condensed, linker removed; mutation: R276L
[1] = biological target: Fuc(a1-2)Gal6S(b1-3)GlcNAc
How it was run: (§1)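 From the Consortium for Functional Glycomics database, 3228 arrays were curated, keeping only those whose protein sequence was available. Binding is given as a within-array Z-score averaged across arrays sharing a protein sequence and across linkers. Negative Z-scores can be read as non-binding.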

[2] = biological target: Fuc(a1-2)Gal6S(b1-3)GlcNAc6S
How it was run: as §1

Fuc(a1-2)Gal6S(b1-4)Glc = biological target: Fuc(a1-2)Gal6S(b1-4)Glc
How it was run: as §1

[3] = biological target: Fuc(a1-2)Gal6S(b1-4)Glc6S
How it was run: as §1

Fuc(a1-2)[Gal(a1-3)]Gal = biological target: Fuc(a1-2)[Gal(a1-3)]Gal
How it was run: as §1

[4] = biological target: Fuc(a1-2)[Gal(a1-3)]Gal(b1-3)GalNAc
How it was run: as §1

[5] = biological target: Fuc(a1-2)[Gal(a1-3)]Gal(b1-3)GalNAc(b1-3)Gal(a1-4)Gal(b1-4)Glc
How it was run: as §1

[6] = biological target: Fuc(a1-2)[Gal(a1-3)]Gal(b1-3)GlcNAc
How it was run: as §1

[7] = biological target: Fuc(a1-2)[Gal(a1-3)]Gal(b1-3)GlcNAc(b1-2)Man(a1-3)[Fuc(a1-2)[Gal(a1-3)]Gal(b1-3)GlcNAc(b1-2)Man(a1-6)]Man(b1-4)GlcNAc(b1-4)GlcNAc
How it was run: as §1

[8] = biological target: Fuc(a1-2)[Gal(a1-3)]Gal(b1-3)GlcNAc(b1-2)Man(a1-3)[Fuc(a1-2)[Gal(a1-3)]Gal(b1-3)GlcNAc(b1-2)Man(a1-6)]Man(b1-4)GlcNAc(b1-4)[Fuc(a1-6)]GlcNAc
How it was run: as §1

[9] = biological target: Fuc(a1-2)[Gal(a1-3)]Gal(b1-3)GlcNAc(b1-3)GalNAc
How it was run: as §1

[10] = biological target: Fuc(a1-2)[Gal(a1-3)]Gal(b1-3)GlcNAc(b1-6)GalNAc
How it was run: as §1

[11] = biological target: Fuc(a1-2)[Gal(a1-3)]Gal(b1-4)Glc
How it was run: as §1

[12] = biological target: Fuc(a1-2)[Gal(a1-3)]Gal(b1-4)GlcNAc
How it was run: as §1

[13] = biological target: Fuc(a1-2)[Gal(a1-3)]Gal(b1-4)GlcNAc(b1-2)Man
How it was run: as §1

[14] = biological target: Fuc(a1-2)[Gal(a1-3)]Gal(b1-4)GlcNAc(b1-2)Man(a1-3)[Fuc(a1-2)[Gal(a1-3)]Gal(b1-4)GlcNAc(b1-2)Man(a1-6)]Man(b1-4)GlcNAc(b1-4)GlcNAc
How it was run: as §1

[15] = biological target: Fuc(a1-2)[Gal(a1-3)]Gal(b1-4)GlcNAc(b1-2)Man(a1-3)[Fuc(a1-2)[Gal(a1-3)]Gal(b1-4)GlcNAc(b1-2)Man(a1-6)]Man(b1-4)GlcNAc(b1-4)[Fuc(a1-6)]GlcNAc
How it was run: as §1

[16] = biological target: Fuc(a1-2)[Gal(a1-3)]Gal(b1-4)GlcNAc(b1-3)GalNAc
How it was run: as §1

[17] = biological target: Fuc(a1-2)[Gal(a1-3)]Gal(b1-4)GlcNAc(b1-3)[Fuc(a1-2)[Gal(a1-3)]Gal(b1-4)GlcNAc(b1-6)]GalNAc
How it was run: as §1

[18] = biological target: Fuc(a1-2)[Gal(a1-3)]Gal(b1-4)GlcNAc(b1-6)GalNAc
How it was run: as §1

[19] = biological target: Fuc(a1-2)[Gal(a1-3)]Gal(b1-4)[Fuc(a1-3)]Glc
How it was run: as §1

[20] = biological target: Fuc(a1-2)[Gal(a1-3)]Gal(b1-4)[Fuc(a1-3)]GlcNAc
How it was run: as §1

[21] = biological target: Fuc(a1-2)[Gal(a1-3)]Gal(b1-4)[Fuc(a1-3)]GlcNAc(b1-3)GalNAc
How it was run: as §1

[22] = biological target: Fuc(a1-2)[Gal(a1-4)]Gal(b1-4)GlcNAc
How it was run: as §1

[23] = biological target: Fuc(a1-2)[GalNAc(a1-3)]Gal
How it was run: as §1

[24] = biological target: Fuc(a1-2)[GalNAc(a1-3)]Gal(b1-3)GalNAc(a1-3)[Fuc(a1-2)]Gal(b1-4)GlcNAc
How it was run: as §1

[25] = biological target: Fuc(a1-2)[GalNAc(a1-3)]Gal(b1-3)GalNAc(b1-3)Gal(a1-4)Gal(b1-4)Glc
How it was run: as §1

[26] = biological target: Fuc(a1-2)[GalNAc(a1-3)]Gal(b1-3)GlcNAc
How it was run: as §1

[27] = biological target: Fuc(a1-2)[GalNAc(a1-3)]Gal(b1-3)GlcNAc(b1-2)Man(a1-3)[Fuc(a1-2)[GalNAc(a1-3)]Gal(b1-3)GlcNAc(b1-2)Man(a1-6)]Man(b1-4)GlcNAc(b1-4)GlcNAc
How it was run: as §1

[28] = biological target: Fuc(a1-2)[GalNAc(a1-3)]Gal(b1-3)GlcNAc(b1-2)Man(a1-3)[Fuc(a1-2)[GalNAc(a1-3)]Gal(b1-3)GlcNAc(b1-2)Man(a1-6)]Man(b1-4)GlcNAc(b1-4)[Fuc(a1-6)]GlcNAc
How it was run: as §1

[29] = biological target: Fuc(a1-2)[GalNAc(a1-3)]Gal(b1-3)GlcNAc(b1-3)GalNAc
How it was run: as §1

[30] = biological target: Fuc(a1-2)[GalNAc(a1-3)]Gal(b1-3)GlcNAc(b1-6)GalNAc
How it was run: as §1

[31] = biological target: Fuc(a1-2)[GalNAc(a1-3)]Gal(b1-4)Glc
How it was run: as §1

[32] = biological target: Fuc(a1-2)[GalNAc(a1-3)]Gal(b1-4)GlcNAc
How it was run: as §1

[33] = biological target: Fuc(a1-2)[GalNAc(a1-3)]Gal(b1-4)GlcNAc(b1-2)Man
How it was run: as §1

[34] = biological target: Fuc(a1-2)[GalNAc(a1-3)]Gal(b1-4)GlcNAc(b1-2)Man(a1-3)[Fuc(a1-2)[GalNAc(a1-3)]Gal(b1-4)GlcNAc(b1-2)Man(a1-6)]Man(b1-4)GlcNAc(b1-4)GlcNAc
How it was run: as §1

[35] = biological target: Fuc(a1-2)[GalNAc(a1-3)]Gal(b1-4)GlcNAc(b1-2)Man(a1-3)[Fuc(a1-2)[GalNAc(a1-3)]Gal(b1-4)GlcNAc(b1-2)Man(a1-6)]Man(b1-4)GlcNAc(b1-4)[Fuc(a1-6)]GlcNAc
How it was run: as §1

[36] = biological target: Fuc(a1-2)[GalNAc(a1-3)]Gal(b1-4)GlcNAc(b1-3)Gal(b1-4)GlcNAc
How it was run: as §1

[37] = biological target: Fuc(a1-2)[GalNAc(a1-3)]Gal(b1-4)GlcNAc(b1-3)Gal(b1-4)GlcNAc(b1-3)Gal(b1-4)GlcNAc
How it was run: as §1

[38] = biological target: Fuc(a1-2)[GalNAc(a1-3)]Gal(b1-4)GlcNAc(b1-3)GalNAc
How it was run: as §1

[39] = biological target: Fuc(a1-2)[GalNAc(a1-3)]Gal(b1-4)GlcNAc(b1-3)[Fuc(a1-2)[GalNAc(a1-3)]Gal(b1-4)GlcNAc(b1-6)]GalNAc
How it was run: as §1

[40] = biological target: Fuc(a1-2)[GalNAc(a1-3)]Gal(b1-4)GlcNAc(b1-6)GalNAc
How it was run: as §1

[41] = biological target: Fuc(a1-2)[GalNAc(a1-3)]Gal(b1-4)[Fuc(a1-3)]GlcNAc
How it was run: as §1

[42] = biological target: Fuc(a1-2)[GalNAc(a1-3)]Gal(b1-4)[Fuc(a1-3)]GlcNAc(b1-3)GalNAc
How it was run: as §1

[43] = biological target: Fuc(a1-2)[GalNAc(a1-4)]Gal(b1-4)GlcNAc
How it was run: as §1

B1: SUN4P (Saccharomyces cerevisiae), P53616 (protein)
chain: MGSSHHHHHHSSGLVPRGSHNGSIYGDLADFSGPYEKFEDGTIPCGQFPSGQGVIPISWLDEGGWSGVENTDTSTGGSCKEGSYCSYACQPGMSKTQWPSDQPSDGRSIGGLLCKDGYLYRSNTDTDYLCEWGVDAAYVVSELSNDVAICLTDYPGTENMVIPTYVQAGDSLPLTVVDQDTYYTWQGLKTSAQYYVNNAGISVEDACVWGSSSSGVGNWAPLNFGAGSSDGVAYLSLIPNPNNGNALNFNVKIVAADDSSTVNGECIYENGSFSGGSDGCTVSVTAGKAKFVLYN
glycan array binding signal (z-score) [1]: -0.921 | glycan array binding signal (z-score) [2]: 1.32 | glycan array binding signal (z-score) (Fuc(a1-2)Gal6S(b1-4)Glc): -0.976 | glycan array binding signal (z-score) [3]: -0.127 | glycan array binding signal (z-score) (Fuc(a1-2)[Gal(a1-3)]Gal): 0.56 | glycan array binding signal (z-score) [4]: -0.474 | glycan array binding signal (z-score) [5]: 0.023 | glycan array binding signal (z-score) [6]: 0.964 | glycan array binding signal (z-score) [7]: 0.856 | glycan array binding signal (z-score) [8]: -1.01 | glycan array binding signal (z-score) [9]: 1.04 | glycan array binding signal (z-score) [10]: -0.788 | glycan array binding signal (z-score) [11]: -0.193 | glycan array binding signal (z-score) [12]: -0.808 | glycan array binding signal (z-score) [13]: 0.867 | glycan array binding signal (z-score) [14]: -0.113 | glycan array binding signal (z-score) [15]: -0.359 | glycan array binding signal (z-score) [16]: -0.465 | glycan array binding signal (z-score) [17]: 0.346 | glycan array binding signal (z-score) [18]: -0.055 | glycan array binding signal (z-score) [19]: -0.341 | glycan array binding signal (z-score) [20]: -0.336 | glycan array binding signal (z-score) [21]: 0.363 | glycan array binding signal (z-score) [22]: 0.224 | glycan array binding signal (z-score) [23]: -0.644 | glycan array binding signal (z-score) [24]: -0.393 | glycan array binding signal (z-score) [25]: -0.881 | glycan array binding signal (z-score) [26]: -0.545 | glycan array binding signal (z-score) [27]: -0.195 | glycan array binding signal (z-score) [28]: -0.131 | glycan array binding signal (z-score) [29]: 1.16 | glycan array binding signal (z-score) [30]: 0.562 | glycan array binding signal (z-score) [31]: -0.571 | glycan array binding signal (z-score) [32]: -0.142 | glycan array binding signal (z-score) [33]: -0.443 | glycan array binding signal (z-score) [34]: 0.742 | glycan array binding signal (z-score) [35]: -0.12 | glycan array binding signal (z-score) [36]: -1.07 | glycan array binding signal (z-score) [37]: -0.33 | glycan array binding signal (z-score) [38]: -0.646 | glycan array binding signal (z-score) [39]: 0.905 | glycan array binding signal (z-score) [40]: -0.976 | glycan array binding signal (z-score) [41]: 0.45 | glycan array binding signal (z-score) [42]: 0.696 | glycan array binding signal (z-score) [43]: 0.486
